In the supplement of paper PMC12823440, “Inhibitors supercharge kinase turnover through native proteolytic circuits” (Nature, 2025):
Where a name gives a salt, the structure may show the parent alone. The list shows a part of the results. Hit calls seldom repeat between salt and free forms of one compound.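 In K562 cells expressing nanoluciferase-fused kinases, luminescence was recorded at 4 h intervals between 2 and 18 h, normalized as percent of control with DMSO at 100% and a positive control at 0%. A significant (2 sigma) signal drop marks a time point as decreased. The authors' rule for a hit is not shown and takes in more than the number of time points.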

By UniProt entry, the sequences of proteins in these tests, tags left out.
UniProt Q16288, whole entry, looked up: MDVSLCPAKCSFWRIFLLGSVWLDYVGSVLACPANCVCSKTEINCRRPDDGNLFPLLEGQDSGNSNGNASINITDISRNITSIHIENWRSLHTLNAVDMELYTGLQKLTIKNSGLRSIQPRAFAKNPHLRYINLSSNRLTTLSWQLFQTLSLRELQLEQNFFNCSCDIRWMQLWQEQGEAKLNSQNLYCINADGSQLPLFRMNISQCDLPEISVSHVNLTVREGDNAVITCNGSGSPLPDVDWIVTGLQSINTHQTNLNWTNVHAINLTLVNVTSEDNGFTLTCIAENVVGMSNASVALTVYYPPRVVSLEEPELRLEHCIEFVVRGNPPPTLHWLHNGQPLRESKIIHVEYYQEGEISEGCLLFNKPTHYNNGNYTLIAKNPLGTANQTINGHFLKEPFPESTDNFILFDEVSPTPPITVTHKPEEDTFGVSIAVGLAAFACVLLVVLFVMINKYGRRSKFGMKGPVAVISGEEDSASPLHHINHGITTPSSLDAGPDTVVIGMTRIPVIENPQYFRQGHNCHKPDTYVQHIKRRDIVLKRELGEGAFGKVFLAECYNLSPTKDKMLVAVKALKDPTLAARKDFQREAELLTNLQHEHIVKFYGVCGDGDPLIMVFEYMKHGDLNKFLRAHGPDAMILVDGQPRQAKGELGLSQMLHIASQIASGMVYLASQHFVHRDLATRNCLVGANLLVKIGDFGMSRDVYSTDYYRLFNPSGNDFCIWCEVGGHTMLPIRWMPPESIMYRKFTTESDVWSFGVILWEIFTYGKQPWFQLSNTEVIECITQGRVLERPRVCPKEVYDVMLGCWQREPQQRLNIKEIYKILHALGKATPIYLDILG

These molecules were tested against NTRK3 (UniProt Q16288) (assay: number of time points (of 5) at which kinase-Nluc abundance scored as decreased, DMSO-normalised (count); higher = more persistent destabilization). Conditions: K562; 2-18 h.
In the case of `C[C@@H](c1ccc2nccn2c1)n1nnc2ncc(-c3cnn(C)c3)nc21` [Savolitinib] (10 µM), the “number of time points” value is reported as 0.
For `CN1C(=O)C(Cc2c[nH]c3ccccc23)NC1=S` (stereo not drawn) [Necrostatin-1] (10 µM), the “number of time points” value was 0.
With `C[C@@H]1C(=O)O[C@H](C)[C@H]1C[C@@H](O)[C@](C)(O)[C@H]1CC[C@@]2(O)C3=CC(=O)[C@@H]4C[C@@H](O)[C@@H](O)C[C@]4(C)[C@H]3CC[C@]12C` [Cyasterone] (10 µM) the “number of time points” value was 0.
`CC(c1ccc(-c2cnc3c(-c4ccc(S(N)(=O)=O)c5ccccc45)cnn3c2)cc1)N1CCCC1` (stereo not drawn) (2.5 µM) was tested, and the “number of time points” value was 0.
With `CCn1c(=O)c(-c2ccc(-c3cncc(C)n3)cc2Cl)cc2cnc(NCCC3CCN(C)CC3)nc21` (10 µM) the “number of time points” value was 0.
`O=C(O)c1cc(O)ccc1O` [2,5-Dihydroxybenzoic acid] (10 µM) was tested, and the “number of time points” value was 0.
With `CC(=NNC(=O)c1ccc(C)c(Br)c1)c1ccc(O)cc1O` [mTOR inhibitor-1] (2.5 µM) the “number of time points” value was 0.
In the case of `Nc1ncnc2c1ncn2[C@@H]1O[C@H](CO)C[C@H]1O` [Cordycepin] (10 µM), the “number of time points” value is reported as 0.
With `C=CC(=O)Nc1cc2c(Nc3ccc(OCc4ccccn4)c(Cl)c3)ncnc2cc1OCCN1CCOCC1` (10 µM) the “number of time points” value was 0.
In the case of `Cc1ccc(S(=O)(=O)Nc2ccccc2C=Nc2ccccc2NS(=O)(=O)c2ccc(C)cc2)cc1` (10 µM), the “number of time points” value is reported as 0.
`CCOc1cc(C(=O)N2CCC(N3CCN(C)CC3)CC2)ccc1Nc1ncc2c(n1)N(C1CCCC1)c1ccccc1C(=O)N2C` (10 µM) was tested, and the “number of time points” value was 0.
`Cn1cnc(-c2cc3nccc(Oc4ccc(NC(=S)NC(=O)Cc5ccccc5)cc4F)c3s2)c1` [MGCD-265 analog] (10 µM) was tested, and the “number of time points” value was 1.
In the case of `Cn1c(=O)c(F)c(Nc2ccc(I)cc2F)c2c(=O)n(C[C@@H](O)CO)cnc21` (10 µM), the “number of time points” value is reported as 0.
`Nc1ncnc2c1c(-c1ccc(Oc3ccccc3)cc1)nn2C1CCNCC1` [N-piperidine Ibrutinib (hydrochloride)] (10 µM) was tested, and the “number of time points” value was 0.
In the case of `Cc1csc(-c2nnc(Nc3ccc(Oc4ncccc4-c4ccnc(N)n4)cc3)c3ccccc23)c1` (2.5 µM), the “number of time points” value is reported as 0.
For `O=C(O)CCc1ccc(O)c(O)c1` [Dihydrocaffeic acid] (10 µM), the “number of time points” value was 0.
For `COCCOc1cnc(Sc2cc(C)c(-c3csc(NC(=O)c4ccncc4)n3)c(C)c2)cn1` [T-1101 (tosylate)] (2.5 µM), the “number of time points” value was 0.
For `Cc1cc(NC(=O)c2cccc(NC(=O)/C=C/CN(C)C)c2)ccc1Nc1nccc(-c2cccnc2)n1` (10 µM), the “number of time points” value was 0.
With `Cc1c(NC(=O)OC[C@@H]2COCCN2)cn2ncnc(Nc3ccc4c(cnn4Cc4cccc(F)c4)c3)c12` (10 µM) the “number of time points” value was 0.
With `Cc1ccc(-c2c(C(=O)CF)n(CCCO)c3ncnc(N)c23)cc1` (10 µM) the “number of time points” value was 0.
In the case of `Cc1ccc(-c2c(C(=O)CCl)n(CCCO)c3ncnc(N)c23)cc1` (10 µM), the “number of time points” value is reported as 4.
With `COc1cc(F)c(F)c(Nc2ccc(I)cc2F)c1NS(=O)(=O)C1(C[C@H](O)CO)CC1` [Refametinib] (10 µM) the “number of time points” value was 0.
In the case of `CCN(CC)c1ccc2cc(C(=O)N3CCN(C(=O)C4=Cc5c(Br)cccc5S4(=O)=O)CC3)c(=O)oc2c1` (2 µM), the “number of time points” value is reported as 0.
With `COc1ccc(C(=C2C(=O)Nc3ccccc32)c2ccc(OC)cc2)cc1` (10 µM) the “number of time points” value was 0.
`N#Cc1ccc2ncnc(NC3CCC(N4CCOCC4)CC3)c2c1` (stereo not drawn) (10 µM) was tested, and the “number of time points” value was 0.
With `NCCN1CCN(C/C=C/C(=O)N2CCC[C@@H](n3nc(-c4ccc(Oc5ccccc5)cc4)c4c(N)ncnc43)C2)CC1` [Ibrutinib-MPEA] (10 µM) the “number of time points” value was 0.
In the case of `CN(CC(=O)N(Cc1ccc(C2CCCCC2)cc1)c1ccc(C(=O)O)cc1)S(=O)(=O)c1c(F)c(F)c(F)c(F)c1F` (2.5 µM), the “number of time points” value is reported as 0.
In the case of `CCn1c(C(=O)N(C2CC2)C2CC2)cc2c3c(ncn3C)c(Nc3cc(C)n(C)n3)nc21` (10 µM), the “number of time points” value is reported as 0.
For `CC(C)CN(CC(=O)N1CCN(CC(OCc2ccc3ccccc3c2)c2ccc(Cl)cc2Cl)CC1)CC(C)C` (stereo not drawn) [LYN-1604 (dihydrochloride)] (2.5 µM), the “number of time points” value was 0.
For `COc1ccc2[nH]cc(/C=C3\C(=O)Nc4ccc(NC(=O)CCN5CCCCC5)cc43)c2c1` (2.5 µM), the “number of time points” value was 0.
`CC(C)=CC(=O)CCC(=O)N1CCN(Cc2cc3nc(-c4cccc5[nH]ncc45)nc(N4CCOCC4)c3s2)CC1` (10 µM) was tested, and the “number of time points” value was 0.
With `O=C(NCCO)c1ccc2c(c1)nc(Nc1cccc(Cl)c1)c1ccncc12` [CK2 inhibitor 2] (10 µM) the “number of time points” value was 0.
For `COc1ccc(CC(=O)Nc2nc3c(s2)CCc2ccccc2-3)cc1OC` (10 µM), the “number of time points” value was 0.
With `c1cc2c(cc1O[C@H]1OC[C@H]3[C@@H]1CO[C@@H]3c1ccc3c(c1)OCO3)OCO2` [Sesamolin] (10 µM) the “number of time points” value was 0.
With `OCCNC1CCCc2c1[nH]c1ccc(-c3ccccc3)cc21` (stereo not drawn) (2.5 µM) the “number of time points” value was 0.
With `CNc1nc(Nc2cnn(C3CCN(C4COC4)CC3F)c2Cl)ncc1C(F)(F)F` (stereo not drawn) (10 µM) the “number of time points” value was 0.
In the case of `Cc1cc2cc(Nc3ccnc(Nc4ccc5[nH]c(C)cc5c4)n3)ccc2[nH]1` (2.5 µM), the “number of time points” value is reported as 0.
In the case of `CC(C)(C)NC(=O)c1cncn1C1CCN(c2ccc(-c3nnc(C(F)(F)F)o3)cn2)CC1` (10 µM), the “number of time points” value is reported as 0.
